# Measurements: the supplement of paper PMC8728848
# The list shows a part of the results.
# B1: GroEL (Clostridium difficile), Q18CT5 (protein)
# chain: MAKEIKFSEETRRALEAGVNKLADTVKVTLGPKGRNVILDKKFGSPLITNDGVTIAKEIELEDRFENMGAQLVKEVATKTNDVAGDGTTTATVLAQAIIREGLKNVTAGANPILLRKGIQKAVTVAVEELKNQSRIVETQEAISQVASISAGDEEVGKLIAEAMEIVGKDGVITVEESQTMNTELDAVEGMQFDRGFVSAYMVTDVDKMEAVLNDPYILITDKKISNIQELLPVLEQIVQQGKKLLIIAEDVEGEALSTLVVNKLRGTFDVVAVKAPGFGDRRKEMLQDIAILTGAQVISEELGYDLKEADLSMLGRASSVKVTKESTTIVDGSGDKKAIEDRVTQIKHQVEQTTSDFDREKLMERLAKLAGGVAVVKVGAATEVELKERKLRIEDALNATRAAVEEGIVAGGGTAFVSVIPAIGTLIESLEGEVKLGAQIVKKALEEPLRQIAINAGLEGAVIVQNVVNSEAETGFDALNEKYVNMIEAGIVDPTKVSRSALQNAASIASTFLTTEAAVADLPEKEDAGMPGMGGGMPGMM
# Key:
# Assay in all cases: glycan array binding signal (z-score within array); higher = stronger binding
# Details in all cases: glycan notation: IUPAC condensed, linker removed
# Gal3S(b1-4)Glc6S = biological target: Gal3S(b1-4)Glc6S
# How it was run: (§1)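 Arrays were curated from the Consortium for Functional Glycomics database, 3228 in total, and kept only where the protein sequence was available. Binding is expressed as a within-array Z-score. This score was averaged across arrays of the same protein sequence at different concentrations or buffers and across linkers, and negative values can be read as non-binding.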
# Gal3S(b1-4)GlcNAc = biological target: Gal3S(b1-4)GlcNAc
# How it was run: as §1
# [1] = biological target: Gal3S(b1-4)[Fuc(a1-3)]Glc6S
# How it was run: as §1
# [2] = biological target: Gal3S(b1-4)[Fuc(a1-3)]GlcNAc
# How it was run: as §1
# [3] = biological target: Gal3S(b1-4)[Fuc(a1-3)]GlcNAc6S
# How it was run: as §1
# Gal3S4S(b1-4)GlcNAc = biological target: Gal3S4S(b1-4)GlcNAc
# How it was run: as §1
# Gal3S6S(b1-4)GlcNAc = biological target: Gal3S6S(b1-4)GlcNAc
# How it was run: as §1
# Gal3S6S(b1-4)GlcNAc6S = biological target: Gal3S6S(b1-4)GlcNAc6S
# How it was run: as §1
# Gal4S(b1-4)GlcNAc = biological target: Gal4S(b1-4)GlcNAc
# How it was run: as §1
# Gal4S6S(b1-4)GlcNAc = biological target: Gal4S6S(b1-4)GlcNAc
# How it was run: as §1
# Gal6P(b1-4)GlcNAc = biological target: Gal6P(b1-4)GlcNAc
# How it was run: as §1
# Gal6S(b1-3)GlcNAc = biological target: Gal6S(b1-3)GlcNAc
# How it was run: as §1
# Gal6S(b1-3)GlcNAc6S = biological target: Gal6S(b1-3)GlcNAc6S
# How it was run: as §1
# Gal6S(b1-4)Glc = biological target: Gal6S(b1-4)Glc
# How it was run: as §1
# Gal6S(b1-4)Glc6S = biological target: Gal6S(b1-4)Glc6S
# How it was run: as §1
# Gal6S(b1-4)GlcNAc = biological target: Gal6S(b1-4)GlcNAc
# How it was run: as §1
# Gal6S(b1-4)GlcNAc6S = biological target: Gal6S(b1-4)GlcNAc6S
# How it was run: as §1
# GalNAc(a1-3)Gal = biological target: GalNAc(a1-3)Gal
# How it was run: as §1
# GalNAc(a1-3)GalNAc = biological target: GalNAc(a1-3)GalNAc
# How it was run: as §1
# [4] = biological target: GalNAc(a1-3)GalNAc(b1-3)Gal(a1-4)Gal(b1-4)Glc
# How it was run: as §1
# [5] = biological target: GalNAc(a1-3)GalNAc(b1-3)Gal(a1-4)Gal(b1-4)GlcNAc
# How it was run: as §1
# GalNAc(b1-3)Gal = biological target: GalNAc(b1-3)Gal
# How it was run: as §1
# [6] = biological target: GalNAc(b1-3)Gal(a1-4)Gal(b1-4)GlcNAc
# How it was run: as §1
# [7] = biological target: GalNAc(b1-3)Gal(a1-4)Gal(b1-4)GlcNAc(b1-3)Gal(b1-4)Glc
# How it was run: as §1
# [8] = biological target: GalNAc(b1-3)Gal(a1-6)Gal(b1-4)Glc
# How it was run: as §1
# GalNAc(b1-3)GalNAc = biological target: GalNAc(b1-3)GalNAc
# How it was run: as §1
# GalNAc(b1-3)GlcNAc = biological target: GalNAc(b1-3)GlcNAc
# How it was run: as §1
# GalNAc(b1-4)Gal(b1-4)Glc = biological target: GalNAc(b1-4)Gal(b1-4)Glc
# How it was run: as §1
# GalNAc(b1-4)GlcNAc = biological target: GalNAc(b1-4)GlcNAc
# How it was run: as §1
# [9] = biological target: GalNAc(b1-4)GlcNAc(b1-2)Man
# How it was run: as §1
# [10] = biological target: GalNAc(b1-4)GlcNAc(b1-2)Man(a1-3)[GalNAc(b1-4)GlcNAc(b1-2)Man(a1-6)]Man(b1-4)GlcNAc(b1-4)GlcNAc
# How it was run: as §1
# [11] = biological target: GalNAc(b1-4)GlcNAc(b1-3)GalNAc(b1-4)GlcNAc
# How it was run: as §1
# GalNAc(b1-4)GlcNAc6S = biological target: GalNAc(b1-4)GlcNAc6S
# How it was run: as §1
# GalNAc(b1-6)GalNAc = biological target: GalNAc(b1-6)GalNAc
# How it was run: as §1
# GalNAc3S(b1-4)GlcNAc = biological target: GalNAc3S(b1-4)GlcNAc
# How it was run: as §1
# GalNAc3S(b1-4)GlcNAc3S = biological target: GalNAc3S(b1-4)GlcNAc3S
# How it was run: as §1
# [12] = biological target: GalNAc3S(b1-4)[Fuc(a1-3)]GlcNAc
# How it was run: as §1
# GalNAc4S6S(b1-4)GlcNAc = biological target: GalNAc4S6S(b1-4)GlcNAc
# How it was run: as §1
# GalNAc6S(b1-4)GlcNAc = biological target: GalNAc6S(b1-4)GlcNAc
# How it was run: as §1
# Glc(a1-4)Glc = biological target: Glc(a1-4)Glc
# How it was run: as §1
# [13] = biological target: Glc(a1-4)Glc(a1-4)Glc(a1-4)Glc
# How it was run: as §1
# Glc(a1-6)Glc(a1-6)Glc = biological target: Glc(a1-6)Glc(a1-6)Glc
# How it was run: as §1
# [14] = biological target: Glc(a1-6)Glc(a1-6)Glc(a1-6)Glc
# How it was run: as §1
# Glc(b1-4)Glc = biological target: Glc(b1-4)Glc
# How it was run: as §1
# Glc(b1-6)Glc = biological target: Glc(b1-6)Glc
# How it was run: as §1
# GlcA(b1-3)Gal = biological target: GlcA(b1-3)Gal
# How it was run: as §1
# GlcA(b1-3)GlcNAc = biological target: GlcA(b1-3)GlcNAc
# How it was run: as §1
# GlcA(b1-6)Gal = biological target: GlcA(b1-6)Gal
# How it was run: as §1
# [15] = biological target: GlcA3S(b1-3)Gal(b1-4)GlcNAc(b1-2)Man
# How it was run: as §1
# [16] = biological target: GlcA3S(b1-3)Gal(b1-4)GlcNAc(b1-3)Gal(b1-4)Glc
# How it was run: as §1
# [17] = biological target: GlcNAc(a1-3)Gal(b1-4)GlcNAc
# How it was run: as §1
# [18] = biological target: GlcNAc(a1-4)Gal(b1-3)GlcNAc
# How it was run: as §1
# [19] = biological target: GlcNAc(a1-4)Gal(b1-4)GalNAc
# How it was run: as §1
# [20] = biological target: GlcNAc(a1-4)Gal(b1-4)GlcNAc
# How it was run: as §1
# [21] = biological target: GlcNAc(a1-4)Gal(b1-4)GlcNAc(b1-3)Gal(b1-4)Glc
# How it was run: as §1
# [22] = biological target: GlcNAc(a1-4)Gal(b1-4)GlcNAc(b1-3)Gal(b1-4)GlcNAc
# How it was run: as §1
# [23] = biological target: GlcNAc(a1-4)Gal(b1-4)GlcNAc(b1-3)Gal(b1-4)GlcNAc(b1-3)Gal(b1-4)GlcNAc
# How it was run: as §1
# [24] = biological target: GlcNAc(a1-4)Gal(b1-4)GlcNAc(b1-3)Gal(b1-4)[Fuc(a1-3)]GlcNAc(b1-3)Gal(b1-4)[Fuc(a1-3)]GlcNAc
# How it was run: as §1
# [25] = biological target: GlcNAc(a1-6)Gal(b1-4)GlcNAc
# How it was run: as §1
# [26] = biological target: GlcNAc(b1-2)Gal(b1-3)GalNAc
# How it was run: as §1
binder,measurement,setting,value
B1,glycan array binding signal (z-score),Gal3S(b1-4)Glc6S,1.8
same,glycan array binding signal (z-score),Gal3S(b1-4)GlcNAc,-0.238
same,glycan array binding signal (z-score),[1],3.51
same,glycan array binding signal (z-score),[2],-0.498
same,glycan array binding signal (z-score),[3],-0.072
same,glycan array binding signal (z-score),Gal3S4S(b1-4)GlcNAc,-0.674
same,glycan array binding signal (z-score),Gal3S6S(b1-4)GlcNAc,-0.083
same,glycan array binding signal (z-score),Gal3S6S(b1-4)GlcNAc6S,-0.281
same,glycan array binding signal (z-score),Gal4S(b1-4)GlcNAc,2.12
same,glycan array binding signal (z-score),Gal4S6S(b1-4)GlcNAc,0.611
same,glycan array binding signal (z-score),Gal6P(b1-4)GlcNAc,0.529
same,glycan array binding signal (z-score),Gal6S(b1-3)GlcNAc,-0.43
same,glycan array binding signal (z-score),Gal6S(b1-3)GlcNAc6S,0.137
same,glycan array binding signal (z-score),Gal6S(b1-4)Glc,0.357
same,glycan array binding signal (z-score),Gal6S(b1-4)Glc6S,0.294
same,glycan array binding signal (z-score),Gal6S(b1-4)GlcNAc,2.53
same,glycan array binding signal (z-score),Gal6S(b1-4)GlcNAc6S,-0.743
same,glycan array binding signal (z-score),GalNAc(a1-3)Gal,0.36
same,glycan array binding signal (z-score),GalNAc(a1-3)GalNAc,-0.959
same,glycan array binding signal (z-score),[4],-0.028
same,glycan array binding signal (z-score),[5],-1.13
same,glycan array binding signal (z-score),GalNAc(b1-3)Gal,-0.735
same,glycan array binding signal (z-score),[6],-0.558
same,glycan array binding signal (z-score),[7],-0.255
same,glycan array binding signal (z-score),[8],-0.691
same,glycan array binding signal (z-score),GalNAc(b1-3)GalNAc,-1.29
same,glycan array binding signal (z-score),GalNAc(b1-3)GlcNAc,0.238
same,glycan array binding signal (z-score),GalNAc(b1-4)Gal(b1-4)Glc,1.88
same,glycan array binding signal (z-score),GalNAc(b1-4)GlcNAc,-0.074
same,glycan array binding signal (z-score),[9],0.51
same,glycan array binding signal (z-score),[10],-0.749
same,glycan array binding signal (z-score),[11],-1.29
same,glycan array binding signal (z-score),GalNAc(b1-4)GlcNAc6S,0.139
same,glycan array binding signal (z-score),GalNAc(b1-6)GalNAc,-0.32
same,glycan array binding signal (z-score),GalNAc3S(b1-4)GlcNAc,1.21
same,glycan array binding signal (z-score),GalNAc3S(b1-4)GlcNAc3S,-1.1
same,glycan array binding signal (z-score),[12],-0.624
same,glycan array binding signal (z-score),GalNAc4S6S(b1-4)GlcNAc,-0.698
same,glycan array binding signal (z-score),GalNAc6S(b1-4)GlcNAc,2.3
same,glycan array binding signal (z-score),Glc(a1-4)Glc,-0.62
same,glycan array binding signal (z-score),[13],0.621
same,glycan array binding signal (z-score),Glc(a1-6)Glc(a1-6)Glc,0.436
same,glycan array binding signal (z-score),[14],-0.277
same,glycan array binding signal (z-score),Glc(b1-4)Glc,2.22
same,glycan array binding signal (z-score),Glc(b1-6)Glc,3.22
same,glycan array binding signal (z-score),GlcA(b1-3)Gal,-1.12
same,glycan array binding signal (z-score),GlcA(b1-3)GlcNAc,-1.19
same,glycan array binding signal (z-score),GlcA(b1-6)Gal,-0.633
same,glycan array binding signal (z-score),[15],-1.37
same,glycan array binding signal (z-score),[16],-0.624
same,glycan array binding signal (z-score),[17],0.513
same,glycan array binding signal (z-score),[18],0.903
same,glycan array binding signal (z-score),[19],-0.877
same,glycan array binding signal (z-score),[20],2.33
same,glycan array binding signal (z-score),[21],0.659
same,glycan array binding signal (z-score),[22],0.928
same,glycan array binding signal (z-score),[23],-0.447
same,glycan array binding signal (z-score),[24],-0.102
same,glycan array binding signal (z-score),[25],-0.498
same,glycan array binding signal (z-score),[26],-0.267
